Experimental data as given in PubChem BioAssay AID2417 (National Center for Advancing Translational Sciences (NCATS), 2010).
The campaign covered roughly 140,000 compounds. About 4,300 (3.1%) were called active. Inconclusive results, whose numbers are uncertain, are shown with a selection of clear calls.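 How the source made its calls: active means readout at or below -70, meaning at least 70% loss of cells showing the perinucleolar compartment, a nuclear body marking cancer cells; inconclusive means readout between -30 and a set limit; inactive means the rest.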

test: High Content Assay for Compounds that inhibit the Assembly of the Perinucleolar Compartment; details: PC3M PTB-GFP, PNC prevalence imaging, 16 h; at 10 µM; hits give low values;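 further: plate controls were DMSO wells for no effect and camptothecin positive control wells for full effect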
How it was run: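 PC3M cells stably expressing PTB-GFP, 750–1000 cells/well, treated 16 h at 37 °C with compound (23 nl of library stock), in duplicate. After paraformaldehyde fixation and Hoechst stain, imaged at 20x; PNC prevalence scored by image analysis.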

Row | SMILES | activity change (PNC), negative = inhibition
1 | O=C1Nc2ccccc2N(O)N1c1ccc(S(=O)(=O)N2CCOCC2)cc1 | inconclusive: -46.9%
2 | O=C(NCCCN1CCOCC1)c1ccc(-n2nc(C(F)(F)F)cc2-c2cccs2)cc1 | inconclusive: -37.7%
3 | COc1cc2c(cc1OC)CN(C(=O)c1cc(S(=O)(=O)N3CCOCC3)ccc1Cl)CC2 | inconclusive: -35.7%
4 | CC1Cc2ccccc2N1S(=O)(=O)c1cccc(C(=O)NCCCO)c1 (centres undefined) | inactive: 21.8%
5 | CCOc1ccc(C(=O)Nc2c(C(N)=O)oc3ccccc23)cc1 | active: -119%
6 | Cn1c(SCC(=O)Nc2ccc(NC(=O)c3cccs3)cc2)nnc1-c1ccncc1 | inactive: -7.61%
7 | Cc1cc2c(cc1C)CSC(c1c(O)ccc3ccccc13)SC2 | inconclusive: -46.9%
8 | COC(=O)c1cccnc1-n1c(=O)c2cccnc2n(Cc2ccc(Cl)cc2)c1=O | inconclusive: -30.4%
9 | CCOC(=O)c1sc(=S)n(CC)c1NC(=O)C1CC1 | inconclusive: -32.8%
10 | O=C(CN1C(=O)C2C3C=CC(C3)C2C1=O)Nc1nc2ccccc2[nH]1 (centres undefined) | inconclusive: -36.8%
11 | c1ccc(Cn2nnnc2C(c2ccncc2)N2CCOCC2)cc1 (centres undefined) | inactive: -13.1%
12 | C[C@H](NS(=O)(=O)c1ccccc1F)C(=O)OCC(=O)N1CCc2ccccc21 | active: -93.4%
13 | COc1cccc(N2CCN(CC(=O)C34CC5CC(CC(C5)C3)C4)CC2)c1 | inconclusive: -56.4%
14 | Cc1ccc(S(=O)(=O)NCCC(=O)Nc2nnc(C3CC3)s2)cc1C | inconclusive: -47.7%
15 | Cn1c(=Nc2ccc(N3CCOCC3)cc2)ccc2ccccc21 | inactive: 33.7%
16 | COc1ccccc1C(O)(C(=O)NNc1cccc(C)c1)c1ccccc1OC | inconclusive: -30.7%
17 | Cc1ccc(C)c(CSc2ncccc2C(=O)O)c1 | inconclusive: -31.9%
18 | CC(=O)Nc1ccc2c(c1)OCCO2 | inconclusive: -39%
19 | CS(=O)(=O)c1nc(-c2ccco2)cc(C(F)(F)F)n1 | inconclusive: -50.8%
20 | N/C(=N\c1nc2c(c(=O)[nH]1)CCC2)Nc1cccc(Cl)c1 | inconclusive: -38.4%
21 | Cc1ccc(C(=O)O/N=C2\CC3CCC2(C)C3(C)C)cc1 (centres undefined) | inconclusive: -34.4%
22 | CCCN1C(=O)C(O)(C/C(C)=N/O)c2ccccc21 (centres undefined) | inactive: 16.8%
23 | O=C(OCCN1CCCC1=O)c1cncc(Br)c1 | inconclusive: -70.3%

Row | SMILES | activity change (PNC), negative = inhibition
24 | Cc1ccc(S(=O)(=O)NCC(=O)OCC(=O)Nc2ncc(Cl)cc2Cl)cc1 | inconclusive: -68.8%
25 | COc1cccc(CNC(=O)C2CCN(Cc3cnn(-c4ccccc4)c3-n3cccc3)CC2)c1 | inconclusive: -31%
26 | COc1ccccc1-c1c(C#N)c(SCC(=O)N2CCCC2)nc(C)c1C(N)=O | inconclusive: -35.7%
27 | COc1ccc2nc(Nc3nc(C)c(C(C)=O)s3)sc2c1 | inactive: 44.6%
28 | O=C(N/N=C\c1ccccn1)C1COc2cc3ccccc3cc2O1 (centres undefined) | inconclusive: -51.5%
29 | COc1ccc(S(=O)(=O)Nc2cc(C(=O)NC3CCCCCC3)ccc2N2CCOCC2)cc1 | inactive: 55.5%
30 | COC(=O)[C@H](CCSC)NC(=O)Nc1ccc(C)c(C)c1 | inconclusive: -32.4%
31 | CC(=O)Oc1ccccc1C1OC(=O)c2ccccc2N1C(C)=O (centres undefined) | inconclusive: -70%
32 | O=C(O)C1CCN(S(=O)(=O)N2CCOCC2)CC1 | inconclusive: -33.5%
33 | C=CCN(CC=C)C(=S)NC(=O)/C=C/c1ccc(OC)cc1 | inconclusive: -58.5%
34 | CN1/C(=C/C(=O)c2cccs2)Sc2ccccc21 | inactive: 33.9%
35 | Cc1cccc(NC(=S)NNC(=S)NCc2ccccc2)c1 | inactive: 20.2%
36 | CN1CC2([N+](=O)[O-])CC=C(OCCO)C([N+](=O)[O-])(C1)C2 (centres undefined) | active: -115%
37 | COc1cccc(-c2cc(C(=O)N3CC4(C)CC3CC(C)(C)C4)no2)c1 (centres undefined) | inconclusive: -33.5%
38 | O=C(NCCCn1ccnc1)C(Cc1ccccc1)N1C(=O)c2ccccc2C1=O (centres undefined) | inconclusive: -30.6%
39 | CCSC1=N/C(=C\c2ccc(OC)cc2)C(=O)N1 | inactive: 52.8%
40 | CC(=O)c1cc2c(C)c(C(=O)c3ccccc3)oc2cc1O | inconclusive: -45.6%
41 | Cc1cccc(NC(=O)Nc2ccc(C)cc2Br)c1 | inconclusive: -72.4%
42 | CCc1ccc(OCC(=O)NNC(=O)Cc2cccs2)cc1 | inconclusive: -44.5%
43 | Cc1ccc(-c2nnc(N3CCN(C(=O)c4ccco4)CC3)c3ccccc23)cc1 | inconclusive: -41.9%
44 | Cc1ccc(-n2c(O)c(/C=N/NC(=O)C3COc4ccccc4O3)c3ccccc3c2=O)cc1 (centres undefined) | inactive: 34.6%
45 | CCN(CC)C(=O)C1=C(C)Nc2nnnn2C1c1cccnc1 (centres undefined) | inconclusive: -46.6%
46 | COc1cc(C2C(C(=O)c3cccs3)=C(O)C(=O)N2c2cc(C)on2)ccc1O (centres undefined) | inconclusive: -44.5%

Grouped by structure, the compounds so far with four or more nitrogen atoms (14)
Row | SMILES | activity change (PNC), negative = inhibition
1 | O=C1Nc2ccccc2N(O)N1c1ccc(S(=O)(=O)N2CCOCC2)cc1 | inconclusive: -46.9%
2 | O=C(NCCCN1CCOCC1)c1ccc(-n2nc(C(F)(F)F)cc2-c2cccs2)cc1 | inconclusive: -37.7%
6 | Cn1c(SCC(=O)Nc2ccc(NC(=O)c3cccs3)cc2)nnc1-c1ccncc1 | inactive: -7.61%
8 | COC(=O)c1cccnc1-n1c(=O)c2cccnc2n(Cc2ccc(Cl)cc2)c1=O | inconclusive: -30.4%
10 | O=C(CN1C(=O)C2C3C=CC(C3)C2C1=O)Nc1nc2ccccc2[nH]1 (centres undefined) | inconclusive: -36.8%
11 | c1ccc(Cn2nnnc2C(c2ccncc2)N2CCOCC2)cc1 (centres undefined) | inactive: -13.1%
14 | Cc1ccc(S(=O)(=O)NCCC(=O)Nc2nnc(C3CC3)s2)cc1C | inconclusive: -47.7%
20 | N/C(=N\c1nc2c(c(=O)[nH]1)CCC2)Nc1cccc(Cl)c1 | inconclusive: -38.4%
25 | COc1cccc(CNC(=O)C2CCN(Cc3cnn(-c4ccccc4)c3-n3cccc3)CC2)c1 | inconclusive: -31%
26 | COc1ccccc1-c1c(C#N)c(SCC(=O)N2CCCC2)nc(C)c1C(N)=O | inconclusive: -35.7%
35 | Cc1cccc(NC(=S)NNC(=S)NCc2ccccc2)c1 | inactive: 20.2%
38 | O=C(NCCCn1ccnc1)C(Cc1ccccc1)N1C(=O)c2ccccc2C1=O (centres undefined) | inconclusive: -30.6%
43 | Cc1ccc(-c2nnc(N3CCN(C(=O)c4ccco4)CC3)c3ccccc23)cc1 | inconclusive: -41.9%
45 | CCN(CC)C(=O)C1=C(C)Nc2nnnn2C1c1cccnc1 (centres undefined) | inconclusive: -46.6%

(listing goes on)

Row | SMILES | activity change (PNC), negative = inhibition
47 | O=c1c([N+](=O)[O-])c(NC2CCCCC2)c2ccccc2n1-c1ccccc1 | inconclusive: -57.8%
48 | c1cc(Nc2ncnc3sccc23)cc(-c2nnc3n2CCCCC3)c1 | inactive: 9.79%
49 | COc1cccc(NC(=S)NNC(=O)c2ccccc2OC(F)F)c1 | inactive: 20%
50 | CN1CCN(/C=N/c2c(C#N)cnn2Cc2ccccc2)CC1 | inconclusive: -78.2%
51 | CCc1ccc(NC(=O)c2ccc(Cn3cc([N+](=O)[O-])cn3)cc2)cc1 | inconclusive: -43.9%
52 | N#Cc1c(-c2ccccc2)ccnc1Oc1ccccc1 | active: -96.3%
53 | Cc1ccc(S(=O)(=O)N[C@H](C(=O)OCn2nnc3ccccc3c2=O)C(C)C)cc1 | inactive: -23.9%
54 | Cc1ccc(C(c2sc3nc(C)nn3c2O)N2CCN(c3ccccc3F)CC2)cc1 (centres undefined) | inconclusive: -46.6%
55 | CCc1cc(=O)oc2cc(C)cc(OCc3nn[nH]n3)c12 | inconclusive: -49.4%
56 | CS(=O)(=O)c1ccc2nc(NC3(C(F)(F)F)N=C4SCCN4C3=O)sc2c1 (centres undefined) | active: -106%
57 | COC(=O)c1cc(NC(=O)c2c(Cl)cnn2C)cc(C(=O)OC)c1 | active: -101%
58 | CCc1ccc[n+](-c2[nH]c(=O)sc2/C=N/NC([S-])=Nc2ccccc2)c1 | inactive: -25%
59 | COC(=O)c1ccc(C(=O)OC)c(NS(=O)(=O)c2ccc(NC(C)=O)cc2)c1 | inactive: -9.12%
60 | Cc1c(NC(=O)c2ccc(Cl)s2)c(=O)n(-c2ccccc2)n1C | inconclusive: -41.3%
61 | c1ccc2c(c1)CC1(CCCCC1)n1nnnc1-2 | inconclusive: -61.7%
62 | COc1ccc(C)cc1NC(=O)COC(=O)C1CC1 | inconclusive: -56.7%
63 | Cc1ccc(S(=O)(=O)N(C)C2(C)CCS(=O)(=O)C2)cc1 (centres undefined) | inconclusive: -46.1%
64 | COCCCNC(=O)/C(C#N)=c1\s/c(=C\c2ccccc2OC(F)F)c(=O)n1CCCOC | inconclusive: -41.1%
65 | C=CCn1c(SCCOc2ccc(OC)cc2)nnc1C(CO)NC(=O)c1ccc(OC)cc1 (centres undefined) | inconclusive: -35.1%
66 | COc1ccc(C(NC(=O)C2CCCCC2)c2c(O)ccc3ccccc23)cc1 (centres undefined) | inactive: 52.1%
67 | O=C(CCC1CC(=O)Nc2ccccc21)NCc1ccc(F)cc1 (centres undefined) | inconclusive: -43.2%
68 | CCOC(=O)c1cnc(-n2nc(C)cc2C)nc1NCCc1ccccc1 | inconclusive: -46.2%
69 | O=C(CN1CCN(Cc2cccc(Cl)c2)C1=O)NCC1CCCO1 (centres undefined) | inconclusive: -45.5%

Row | SMILES | activity change (PNC), negative = inhibition
70 | CCOc1cc(N2C(=O)CC3CS(=O)(=O)CC32)c(OCC)cc1NC(=O)c1ccccc1 (centres undefined) | inconclusive: -61.6%
71 | COc1cc(CNC2CCCC2)cc(OC)c1OC | inconclusive: -30.2%
72 | Nc1nnc(SCCCC(=O)c2ccccc2)s1 | inactive: -2.01%
73 | COc1ccc(Oc2nc(C)cc(C)c2S(=O)(=O)c2ccc(C)cc2)cc1 | inconclusive: -46.3%
74 | O=C(/C=C/c1cccc([N+](=O)[O-])c1)NCC1CCCO1 (centres undefined) | inactive: 6.01%
75 | COc1ccc(CCNC(=O)CN2CCN(c3cccc(Cl)c3)CC2)cc1OC | active: -91.2%
76 | O=C1c2ccccc2C(=O)N1CC#CCN1CCN(C(c2ccccc2)c2ccccc2)CC1 | inconclusive: -36.5%
77 | COc1ccccc1CNC(=O)c1ccc(-c2ccccc2C(F)(F)F)o1 | inconclusive: -51.1%
78 | CCN(CC)S(=O)(=O)c1cc([N+](=O)[O-])ccc1NNC(=O)Nc1ccccc1 | inconclusive: -47%
79 | COc1ccc(C2=NOC(C(=O)NCc3cccs3)C2)cc1OC (centres undefined) | inactive: -11.7%
80 | O=C(O)C1CC=CCC1C(=O)Nc1cccc(Cl)c1Cl (centres undefined) | inconclusive: -44.9%
81 | CCn1cc(CNC(=O)/C=C/c2cnn(C)c2)c(C)n1 | inconclusive: -48.9%
82 | Cc1ccc(OCC(O)CN2CCN(Cc3ccc4c(c3)OCO4)CC2)cc1C (centres undefined) | inconclusive: -64.7%
83 | COc1ccc(NC(=O)CNc2cccc(C#N)c2)cc1Cl | inconclusive: -42.5%
84 | COCCSc1nc2c(c(=O)[nH]c(=O)n2C)n1CCC(C)C | inactive: -4.08%
85 | COc1ccc2c(c1)NC1(O)c3ccccc3C(=O)C21O (centres undefined) | inactive: 18.6%
86 | Cc1ccc(NC(=O)C(OC(=O)c2ccc(NC(N)=O)cc2)c2ccccc2)cc1Cl (centres undefined) | inactive: -29.3%
87 | CCOC(=O)CSc1nnc(CCCCCN2C(=O)c3cccc4cccc(c34)C2=O)o1 | inactive: 52.2%
88 | O=C(Nc1ccccc1)c1ccc(NCc2ccco2)c(S(=O)(=O)N2CCOCC2)c1 | active: -87.8%
89 | Cc1cccc(N2CCN(C(=O)c3ccccc3NC(=O)C3CC=CCC3C(=O)O)CC2)c1 (centres undefined) | inactive: -2.75%

Taken from above:
Value of Nc1nnc(SCCCC(=O)c2ccccc2)s1 under activity change (PNC), negative = inhibition: inactive: -2.01%
Value of COc1ccc(NC(=O)CNc2cccc(C#N)c2)cc1Cl under activity change (PNC), negative = inhibition: inconclusive: -42.5%
